Test results from PMC3930858.

What was measured:
[1] = biological target: T1, SnRK1.1/AKIN10 (Arabidopsis thaliana) (UniProt Q38997); test: two-hybrid; direct test by cotransformation of GAL4 DNA-binding domain and activation domain plasmids in yeast strain Y190; growth on medium lacking Leu, Trp and His with 25 mM 3-amino-triazole, 30°C, 3 days; lacZ activity
T1 sequence: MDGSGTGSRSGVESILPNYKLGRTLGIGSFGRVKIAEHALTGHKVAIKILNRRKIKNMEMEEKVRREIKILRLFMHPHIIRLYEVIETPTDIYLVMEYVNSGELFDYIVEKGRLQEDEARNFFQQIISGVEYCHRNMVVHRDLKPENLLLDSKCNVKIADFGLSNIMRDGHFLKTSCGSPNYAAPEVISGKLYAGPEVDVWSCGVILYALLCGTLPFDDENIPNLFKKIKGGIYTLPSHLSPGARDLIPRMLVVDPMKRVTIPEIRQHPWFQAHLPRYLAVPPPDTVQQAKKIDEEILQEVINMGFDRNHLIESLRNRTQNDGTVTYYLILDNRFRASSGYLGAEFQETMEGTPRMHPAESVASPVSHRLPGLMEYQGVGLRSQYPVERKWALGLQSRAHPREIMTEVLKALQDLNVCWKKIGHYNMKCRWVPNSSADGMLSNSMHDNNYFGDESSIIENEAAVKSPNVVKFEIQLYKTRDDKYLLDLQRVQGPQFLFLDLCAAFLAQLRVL

[2] = biological target: T2, SnRK1.2/AKIN11 (Arabidopsis thaliana) (UniProt P92958); test: as above
T2 sequence: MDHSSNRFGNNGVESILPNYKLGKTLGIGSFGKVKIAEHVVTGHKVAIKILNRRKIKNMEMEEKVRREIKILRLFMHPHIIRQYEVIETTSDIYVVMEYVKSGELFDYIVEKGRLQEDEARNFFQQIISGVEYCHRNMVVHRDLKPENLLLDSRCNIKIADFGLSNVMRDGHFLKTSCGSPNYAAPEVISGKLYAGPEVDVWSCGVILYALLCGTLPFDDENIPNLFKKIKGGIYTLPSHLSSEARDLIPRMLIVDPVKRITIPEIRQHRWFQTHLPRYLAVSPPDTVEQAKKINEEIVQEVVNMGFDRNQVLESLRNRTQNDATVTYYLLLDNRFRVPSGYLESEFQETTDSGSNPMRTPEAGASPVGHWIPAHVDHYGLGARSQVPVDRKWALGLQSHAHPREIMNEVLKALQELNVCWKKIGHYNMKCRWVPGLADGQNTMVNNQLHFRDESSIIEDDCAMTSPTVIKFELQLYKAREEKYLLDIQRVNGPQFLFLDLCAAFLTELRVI

[3] = biological target: T3, AKIN10-Venus^N (Arabidopsis thaliana) (UniProt Q38997); test: split reporter; BiFC with Venus^N and Venus^C fusions under the CaMV35S promoter, transient expression in N. benthamiana leaves, confocal microscopy 48 h post infiltration
T3 sequence: T1 sequence

[4] = biological target: T4, AKIN11-Venus^N (Arabidopsis thaliana) (UniProt P92958); test: as above
T4 sequence: T2 sequence

Row | Substance | binding [1] | binding [2] | binding [3] | binding [4]
1 | DUF581-12 (Arabidopsis thaliana) | binds | binds |  | 
2 | DUF581-2 (Arabidopsis thaliana) | binds | binds |  | 
3 | DUF581-6-Venus^C (Arabidopsis thaliana) |  |  | binds | binds
4 | DUF581-5 (Arabidopsis thaliana) | binds | binds |  | 
5 | DUF581-8 (Arabidopsis thaliana) | binds | binds |  | 
6 | DUF581-14 (Arabidopsis thaliana) | binds | binds |  | 
7 | DUF581-13 (Arabidopsis thaliana) | binds | binds |  | 
8 | DUF581-6 (Arabidopsis thaliana) | binds | binds |  | 
9 | DUF581-1 (Arabidopsis thaliana) | binds | binds |  | 

More lines, now with the values ahead:

Row | binding [1] | binding [2] | binding [3] | binding [4] | Substance
10 | binds | binds |  |  | DUF581-10 (Arabidopsis thaliana)
11 |  |  | no binding | no binding | cytosolic fructose-1,6-bisphosphatase (FBPase) (enzyme)
12 | binds |  |  |  | DUF581-1 deletion construct comprising amino acids 138-192 (Arabidopsis thaliana) (domain or fragment)
13 | binds | binds |  |  | DUF581-17 (Arabidopsis thaliana)
14 | binds | binds |  |  | DUF581-16 (Arabidopsis thaliana)

No constants are given. Whether binding was seen depends on the method and setting. Binding calls can cover weak binding; strength is not graded here. For part of these data: In cells and extracts the contact can be indirect.
